PubChem BioAssay AID1259254, NCATS, 2017
Assay: 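Genome-wide screen for genes that prevent DNA re-replication in cancer cells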 (primary screen). Cells: human HCT116 colorectal cancer cells. Reagents: single siRNA against human genes. Timing: 3 days. Detection: 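Nuclei stained with Hoechst and imaged; cell-cycle phase assigned by DNA content; G2 share scaled per plate, non-targeting siRNA 0%, GMNN siRNA 100%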. Reading the numbers: G2 robust z-score: higher = more G2 cells, more excess DNA replication. Hit rule: 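An siRNA counts as active if its G2 robust z-score lies at least 5 MADs above the screen median; here such calls match roughly 38% of GMNN control or more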.
In all, the deposit lists about 59,000 reagents; this is a random part of them. About 1,550 of them (2.6%) count as active. 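G2 share is only a proxy for re-replication; each gene was hit by three separate siRNAs, and active genes were retested.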 Reagents against one gene are numbered here. Further read-outs or replicates are left out here. The record does not give: the amount of reagent.

G2 robust z-score, by target gene and reagent
OR52B2 (GeneID 255725): #1 1.01 inactive; #2 0.279 inactive; #3 -1.03 inactive
NTNG2 (GeneID 84628): #1 0.806 inactive; #2 0.98 inactive; #3 1.45 inactive
LMAN2 (GeneID 10960): #1 -0.592 inactive; #2 0.299 inactive; #3 -0.15 inactive
HULC (GeneID 728655): #1 0.73 inactive; #2 -1.02 inactive; #3 -0.402 inactive
PRADC1 (GeneID 84279): #1 0.123 inactive; #2 -0.743 inactive; #3 0.91 inactive
ZNF878 (GeneID 729747): #1 0.341 inactive; #2 -1.06 inactive; #3 1.41 inactive
PIGN (GeneID 23556): #1 -0.899 inactive; #2 -1.5 inactive; #3 0.257 inactive
SERTAD2 (GeneID 9792): #1 -0.806 inactive; #2 -0.64 inactive; #3 -0.682 inactive
FBXO2 (GeneID 26232): #1 -0.492 inactive; #2 -0.143 inactive; #3 0.571 inactive
RAX2 (GeneID 84839): #1 0.979 inactive; #2 0.726 inactive; #3 1.05 inactive
SYN3 (GeneID 8224): #1 1.1 inactive; #2 2.35 inactive; #3 -0.917 inactive
CNTN5 (GeneID 53942): #1 -0.407 inactive; #2 -0.958 inactive; #3 -0.348 inactive
ARID3C (GeneID 138715): #1 0.477 inactive; #2 0.946 inactive; #3 1.18 inactive
ACTR2 (GeneID 10097): #1 -0.301 inactive; #2 1.14 inactive; #3 2.54 inactive
CA3 (GeneID 761): #1 1.21 inactive; #2 0.055 inactive; #3 2.52 inactive
DUSP1 (GeneID 1843): #1 2.4 inactive; #2 1.57 inactive; #3 0.477 inactive

5 neighbouring entries from above, quoted:
G2 robust z-score, by target gene and reagent
SYN3 (GeneID 8224): #2 2.35 inactive; #3 -0.917 inactive
CNTN5 (GeneID 53942): #1 -0.407 inactive; #2 -0.958 inactive; #3 -0.348 inactive
